These results are taken from paper PMC7862700.

This is a selection; strong and weak results do not stand in their true shares. At the low end of the ranking, values are background and their order means little.

This assay has as its target SPI1 (UniProt P17947). Briefly: DAPPL (digital affinity profiling via proximity ligation, sequencing). The settings on record: 10 mM Tris-HCl pH 7.5, 50 mM NaCl, 1 mM DTT, 4% glycerol, room temperature, 30 min; GST-TFs on glutathione beads, 16-mer random dsDNA library, 0.1% …; high values mean tight binding; double strand, one strand shown; scale: fold enrichment (6-mer frequency, TF over GST control).
As to CACAGC, the binding signal was found to be 0.966.
To ACGAAG belongs 0.897; to CAAGAA, 1.06.
To AGCATC belongs 0.962; to AATCGT, 0.839.
In turn, TAAGAG came in with a binding signal of 0.857.
Turning to TCGCAT, the binding signal is 0.992.
In turn, TGAAGA showed a binding signal of 0.955.
As for ACTCGT, the figure is 1.17; as for GCTGAC, 1.04.
As for CTCCAG, the figure is 1.21.
As for GCCGCC, the figure is 1.13; as for AGGTCC, 0.894.
The sequence GTAAGC registered a binding signal of 0.938.
As for CTCGGG, the figure is 0.914.
CAGAAG yielded a binding signal of 0.797.
As for ATCACG, the figure is 0.991.
Take AAACGA: the binding signal amounted to 1.1.
As for CGGATC, the figure is 0.92; as for CCGGTG, 0.952; as for ATAACC, 1.06.
As to GTAATT, the binding signal worked out at 1.25.
As for TAAATC, the figure is 1.21; as for GCAAAG, 0.921.
With AGTAAT, the binding signal was 1.17.
As for CCACTG, the figure is 1.16; as for GTCCAA, 0.948; as for CGTTGC, 0.997.
As for GATGTA, the figure is 1.3.
To GTGTCT belongs 0.976; to GTACCA, 1.11; to AGCTTG, 0.93.
With CTGGAA, the binding signal was determined as 1.26.
As for CCAGAT, the binding signal amounted to 0.841.
To GCTAAG belongs 0.972.
For the sequence GGCTGC, the binding signal came out at 1.01.
On to CCGTAT, for which the binding signal worked out at 1.26.
To ACCCTC belongs 1.12; to GATGGG, 0.978.
